The numbers were not newly measured in patent US8569335B2, “Compounds derived from taurine, process of their preparation and pharmaceutical compositions containing these” (EMS S.A., priority 2008, dated 2013), which cites them from elsewhere.

For the data set the following is noted: oral administration; literature (Merck Index); cited from earlier work.

Consider `COc1ccc2cc([C@H](C)C(=O)O)ccc2c1` [naproxen, reference compound], for which the LD50 is 1,234 mg/Kg.
